This passage reports binding results from paper PMC8845002.

Chains of the proteins cited; added tags and fusions are not shown.
UniProt P40763: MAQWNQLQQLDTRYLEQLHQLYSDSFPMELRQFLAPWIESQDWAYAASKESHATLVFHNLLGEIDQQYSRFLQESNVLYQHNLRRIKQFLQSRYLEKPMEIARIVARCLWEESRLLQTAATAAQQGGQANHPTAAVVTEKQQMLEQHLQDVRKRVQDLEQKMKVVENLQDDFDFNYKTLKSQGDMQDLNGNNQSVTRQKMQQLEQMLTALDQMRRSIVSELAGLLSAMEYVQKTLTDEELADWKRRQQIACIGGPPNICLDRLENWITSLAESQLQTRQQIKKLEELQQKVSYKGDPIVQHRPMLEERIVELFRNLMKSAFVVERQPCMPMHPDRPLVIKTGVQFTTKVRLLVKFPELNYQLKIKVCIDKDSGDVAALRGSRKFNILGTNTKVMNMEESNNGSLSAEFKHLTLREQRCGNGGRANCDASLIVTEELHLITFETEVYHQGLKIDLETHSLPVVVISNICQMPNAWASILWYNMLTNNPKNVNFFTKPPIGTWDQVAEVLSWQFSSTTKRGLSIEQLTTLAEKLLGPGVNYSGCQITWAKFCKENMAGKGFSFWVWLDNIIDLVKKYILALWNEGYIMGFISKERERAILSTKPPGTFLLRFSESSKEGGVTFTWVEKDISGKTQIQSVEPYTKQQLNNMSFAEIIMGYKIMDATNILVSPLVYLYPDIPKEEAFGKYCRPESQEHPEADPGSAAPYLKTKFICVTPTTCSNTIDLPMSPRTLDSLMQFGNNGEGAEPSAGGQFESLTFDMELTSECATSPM
UniProt Q04695: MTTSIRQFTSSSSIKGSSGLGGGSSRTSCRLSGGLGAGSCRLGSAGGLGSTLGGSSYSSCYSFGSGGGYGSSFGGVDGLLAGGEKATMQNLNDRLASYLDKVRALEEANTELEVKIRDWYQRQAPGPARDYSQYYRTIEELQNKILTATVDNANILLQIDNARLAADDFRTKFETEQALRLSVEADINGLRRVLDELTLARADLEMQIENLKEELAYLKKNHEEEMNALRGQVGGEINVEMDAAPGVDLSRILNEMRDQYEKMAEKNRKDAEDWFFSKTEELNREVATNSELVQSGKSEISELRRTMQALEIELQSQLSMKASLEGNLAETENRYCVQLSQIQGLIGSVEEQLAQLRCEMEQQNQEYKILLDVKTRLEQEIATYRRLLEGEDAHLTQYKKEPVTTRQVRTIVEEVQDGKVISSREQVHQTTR
UniProt Q04206: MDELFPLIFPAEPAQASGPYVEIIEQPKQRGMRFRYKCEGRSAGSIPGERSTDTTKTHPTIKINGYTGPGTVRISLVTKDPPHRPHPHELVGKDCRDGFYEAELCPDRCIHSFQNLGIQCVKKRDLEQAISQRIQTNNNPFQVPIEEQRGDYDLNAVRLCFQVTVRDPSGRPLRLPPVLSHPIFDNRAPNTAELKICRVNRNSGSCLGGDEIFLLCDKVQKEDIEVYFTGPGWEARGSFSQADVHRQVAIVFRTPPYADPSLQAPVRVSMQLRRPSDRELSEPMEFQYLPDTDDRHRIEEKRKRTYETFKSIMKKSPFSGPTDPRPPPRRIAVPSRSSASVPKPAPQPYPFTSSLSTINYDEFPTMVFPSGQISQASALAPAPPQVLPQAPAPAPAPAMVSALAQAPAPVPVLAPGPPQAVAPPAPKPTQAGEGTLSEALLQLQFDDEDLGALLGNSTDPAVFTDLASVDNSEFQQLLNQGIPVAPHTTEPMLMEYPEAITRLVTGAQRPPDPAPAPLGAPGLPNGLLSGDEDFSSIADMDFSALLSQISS

The target of test [1] is signal transducer and activator of transcription 3 (human (endogenous in HaCaT)) (UniProt P40763). Description: co-IP; whole-cell lysates incubated with anti-STAT3 for 3 h, then Protein A/G PLUS-Agarose at 4°C overnight, four PBS washes, immunoblot; cells with or without leptomycin B (LMB); anti-IgG control.
The target of test [2] is Keratin 17 (human (endogenous in HaCaT)) (UniProt Q04695). As to the kind of experiment: co-IP; whole-cell lysates incubated with anti-K17 for 3 h, then Protein A/G PLUS-Agarose at 4°C overnight, four PBS washes, immunoblot; cells with or without leptomycin B (LMB); anti-IgG control.

No constants are given. Whether binding was seen depends on the method and setting. Binding seen in cells or lysates may run through a third protein. Some entries that bind do so weakly or less than the wild type.

Take Keratin 17 (from UniProt Q04695 1-432): the binding entry in test [1] is “binds”. As for p65 (from UniProt Q04206 1-551), the binding result in test [2] was “no binding”. As for “signal transducer and activator of transcription 3 (from UniProt P40763 1-770)”, in test [2], the binding result is “binds”.
